In paper PMC6341073 one finds binding data, which are given here for one molecule.

Results are given in words; binding and its absence hold for the method and conditions named. Binding seen in cells or lysates may run through a third protein. Here binding means that the protein was enriched with, or labelled near, the bait; the list need not be complete.

In this experiment the target is wildtype full-length Yca1-RFP (S. cerevisiae). As to the kind of experiment: affinity purification with mass spectrometry; anti-RFP magnetic beads on lysate of ∆yca1 cells expressing Yca1-RFP (FL), overnight at 4 °C, buffer A (20 mM HEPES-NaOH pH 7.4, 2 mM MgCl2, 300 mM NaCl, 0.1% Tween-20); LC-MS/MS; three independent experiments.

B1: Ser/Thr kinase Ypk1 (enzyme, UniProt P12688 1-680)
chain: MYSWKSKFKFGKSKEEKEAKHSGFFHSSKKEEQQNNQATAGEHDASITRSSLDRKGTINPSNSSVVPVRVSYDASSSTSTVRDSNGGNSENTNSSQNLDETANIGSTGTPNDATSSSGMMTIKVYNGDDFILPFPITSSEQILNKLLASGVPPPHKEISKEVDALIAQLSRVQIKNQGPADEDLISSESAAKFIPSTIMLPGSSTLNPLLYFTIEFDNTVATIEAEYGTIAKPGFNKISTFDVTRKLPYLKIDVFARIPSILLPSKTWQQEMGLQDEKLQTIFDKINSNQDIHLDSFHLPINLSFDSAASIRLYNHHWITLDNGLGKINISIDYKPSRNKPLSIDDFDLLKVIGKGSFGKVMQVRKKDTQKVYALKAIRKSYIVSKSEVTHTLAERTVLARVDCPFIVPLKFSFQSPEKLYFVLAFINGGELFYHLQKEGRFDLSRARFYTAELLCALDNLHKLDVVYRDLKPENILLDYQGHIALCDFGLCKLNMKDDDKTDTFCGTPEYLAPELLLGLGYTKAVDWWTLGVLLYEMLTGLPPYYDEDVPKMYKKILQEPLVFPDGFDRDAKDLLIGLLSRDPTRRLGYNGADEIRNHPFFSQLSWKRLLMKGYIPPYKPAVSNSMDTSNFDEEFTREKPIDSVVDEYLSESVQKQFGGWTYVGNEQLGSSMVQGRSIR
B1: the binding result was “binds”.
